This is an account of results in paper PMC7810988, “Inositol pyrophosphates promote the interaction of SPX domains with the coiled-coil motif of PHR transcription factors to regulate plant phosphate homeostasis” (Nature Communications, 2021).

By UniProt entry, the sequences of proteins in these tests, tags left out. Where a name states a change or a piece, a line headed by the entry shows the natural chain unless it says otherwise. Chains listed by the source or under a name are the forms on record and can include a tag or linker. Residues count along the entry.
AtPHR1^226–360 fused to the Gal4-activation domain (Q94CL7, residues 226-360): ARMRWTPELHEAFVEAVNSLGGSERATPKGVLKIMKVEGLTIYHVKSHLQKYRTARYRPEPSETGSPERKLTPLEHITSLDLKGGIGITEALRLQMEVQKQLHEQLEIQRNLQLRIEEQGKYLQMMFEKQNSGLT
AtPHR1^280–360 Olig1 (Q94CL7, form named): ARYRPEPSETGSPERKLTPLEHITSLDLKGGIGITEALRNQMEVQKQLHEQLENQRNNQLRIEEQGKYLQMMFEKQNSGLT
AtPHR1^280–360 Olig2 (Q94CL7, form named): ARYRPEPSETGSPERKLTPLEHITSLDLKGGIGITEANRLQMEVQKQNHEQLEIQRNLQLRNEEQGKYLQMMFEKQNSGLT
AtPHR1^(222-358 Olig1) (Q94CL7, form named): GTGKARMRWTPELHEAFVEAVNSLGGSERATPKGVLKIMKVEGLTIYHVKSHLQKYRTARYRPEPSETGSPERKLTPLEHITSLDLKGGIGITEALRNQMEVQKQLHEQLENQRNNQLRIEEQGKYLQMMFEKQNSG
AtPHR1^(222-358 Olig2) (Q94CL7, form named): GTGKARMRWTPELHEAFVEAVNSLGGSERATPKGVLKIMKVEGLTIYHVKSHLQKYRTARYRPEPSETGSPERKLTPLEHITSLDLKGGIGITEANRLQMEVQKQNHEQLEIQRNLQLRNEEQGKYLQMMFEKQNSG

Residue numbers refer to the chain shown, from its start. No constants are given. Whether binding was seen depends on the method and setting.

The target of test [1] is T1, AtSPX1^KSC (yeast two-hybrid) (Arabidopsis thaliana) (UniProt Q8LBH4).
T1 sequence: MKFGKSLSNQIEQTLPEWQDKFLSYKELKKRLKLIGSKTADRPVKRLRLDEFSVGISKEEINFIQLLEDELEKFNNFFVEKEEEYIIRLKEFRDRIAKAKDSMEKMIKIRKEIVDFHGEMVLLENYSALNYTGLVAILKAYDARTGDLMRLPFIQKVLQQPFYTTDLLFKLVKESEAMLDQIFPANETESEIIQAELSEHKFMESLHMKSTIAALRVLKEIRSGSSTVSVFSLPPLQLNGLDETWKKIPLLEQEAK
The test is described as follows: two-hybrid; AtPHR1 constructs fused to the Gal4-AD (prey), AtSPX proteins fused to the LexA-BD (bait); spotting dilution on SD medium lacking histidine (Fig. 3b: with 10 mM 3-AT), 30 °C, 3 days.

Test [2] addresses T2, AtSPX1^PBC (yeast two-hybrid) (Arabidopsis thaliana) (UniProt Q8LBH4).
T2 sequence: T1 sequence with Y25A, K29A, A136K, K139A, A140K, A143K
The test is described as above.

Test [3] has as its target AtPHR1^280–360 Olig1 (Arabidopsis thaliana) (UniProt Q94CL7). In words: SEC-RALS; size-exclusion chromatography with right-angle light scattering; 50 µL of 2–10 mg/mL protein, 20 mM HEPES pH 7.5, 150 mM NaCl, Superdex 200 increase 10/300 GL, 25 °C; both purified. For orientation: SEC sorts molecules by how far they enter the pores of the column.
Test [4] deals with AtPHR1^280–360 Olig2 (Arabidopsis thaliana) (UniProt Q94CL7). The test is described as above.
Test [5] addresses AtPHR1^(222-358 Olig1) (Arabidopsis thaliana) (UniProt Q94CL7). The description is as above.
Test [6] concerns the target AtPHR1^(222-358 Olig2) (Arabidopsis thaliana) (UniProt Q94CL7). The test is described as above.

Turning to “AtPHR1^226–360 fused to the Gal4-activation domain (from UniProt Q94CL7 226-360) (domain or fragment)”, the binding entry in test [1] and in test [2] was “no binding” each time. As to “AtPHR1^280–360 Olig1 (from UniProt Q94CL7 280-360) (domain or fragment)”, in test [3], the binding entry is “no binding (tested: 2–10 mg/mL)”. As for “AtPHR1^280–360 Olig2 (from UniProt Q94CL7 280-360) (domain or fragment)”, the binding result in test [4] is recorded as “no binding (tested: 2–10 mg/mL)”. Take “AtPHR1^(222-358 Olig1) (from UniProt Q94CL7 222-358) (domain or fragment)”: in test [5], the binding result was “no binding (tested: 2–10 mg/mL)”. Take “AtPHR1^(222-358 Olig2) (from UniProt Q94CL7 222-358) (domain or fragment)”: in test [6], the binding entry is given as “no binding (tested: 2–10 mg/mL)”.
